This passage reports binding results from patent US20220313831A1 (BAYLOR COLLEGE OF MEDICINE, published 2022).

These are yes or no findings as the source states them, for the method shown. Binding calls can cover weak binding; strength is not graded here. Where a sequence is shown, tags or fusion partners need not be part of it.

Test [1] deals with T1, IgG1 Fc linked recombinant human ALCAM (human) (UniProt Q13740).
T1 sequence (looked up): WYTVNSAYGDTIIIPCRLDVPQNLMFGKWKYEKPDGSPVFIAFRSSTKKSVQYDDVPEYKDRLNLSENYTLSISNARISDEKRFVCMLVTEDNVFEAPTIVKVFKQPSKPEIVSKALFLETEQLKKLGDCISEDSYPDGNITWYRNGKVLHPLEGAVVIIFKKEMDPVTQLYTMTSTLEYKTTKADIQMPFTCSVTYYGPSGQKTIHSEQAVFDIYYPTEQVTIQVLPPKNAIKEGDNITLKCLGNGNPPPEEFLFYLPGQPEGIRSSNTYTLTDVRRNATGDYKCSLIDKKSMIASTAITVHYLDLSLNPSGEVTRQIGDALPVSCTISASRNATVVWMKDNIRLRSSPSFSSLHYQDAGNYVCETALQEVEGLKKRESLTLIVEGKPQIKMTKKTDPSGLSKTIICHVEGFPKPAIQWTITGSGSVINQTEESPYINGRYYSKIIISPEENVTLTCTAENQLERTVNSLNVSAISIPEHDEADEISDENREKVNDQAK
Briefly: flow cytometry with ALCAM-fc (FIG. 6). (In flow cytometry, cells or beads pass a laser one at a time.)

For test [2], the target named is T1, IgG1 Fc linked recombinant human ALCAM (human). Briefly: flow cytometry; transduced T cells stained with ALCAM-Fc and anti-human IgG1 Fc FITC.

With “Monomer 1xD3 CD6 truncated/mutated (1-D3Δ) (receptor)”, the binding result in test [1] and in test [2] was “binds” in each case.

“Monomer 1xD3 CD6 with signalling domain (1-D3) (receptor)”: the binding entry in test [1] and in test [2] was “binds” in each case.
